Results reported in publication PMC7094862.
Results are given in words; binding and its absence hold for the method and conditions named. In cells and extracts the contact can be indirect. Some binding calls cover weakened binding; strength is not graded here. Sequences can lack the tags named with a protein.

By UniProt entry, the sequences of proteins in these tests, tags left out.
UniProt Q99836: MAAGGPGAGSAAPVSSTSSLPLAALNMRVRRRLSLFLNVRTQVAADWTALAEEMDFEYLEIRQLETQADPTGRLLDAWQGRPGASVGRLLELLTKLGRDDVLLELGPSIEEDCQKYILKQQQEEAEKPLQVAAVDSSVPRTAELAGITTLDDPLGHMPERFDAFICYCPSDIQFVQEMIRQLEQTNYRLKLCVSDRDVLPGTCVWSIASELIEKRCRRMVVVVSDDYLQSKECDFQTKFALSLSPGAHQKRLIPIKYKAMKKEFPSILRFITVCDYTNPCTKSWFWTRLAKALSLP

Target: T1, SIGIRR-FLAG (UniProt Q6IA17)
T1 sequence: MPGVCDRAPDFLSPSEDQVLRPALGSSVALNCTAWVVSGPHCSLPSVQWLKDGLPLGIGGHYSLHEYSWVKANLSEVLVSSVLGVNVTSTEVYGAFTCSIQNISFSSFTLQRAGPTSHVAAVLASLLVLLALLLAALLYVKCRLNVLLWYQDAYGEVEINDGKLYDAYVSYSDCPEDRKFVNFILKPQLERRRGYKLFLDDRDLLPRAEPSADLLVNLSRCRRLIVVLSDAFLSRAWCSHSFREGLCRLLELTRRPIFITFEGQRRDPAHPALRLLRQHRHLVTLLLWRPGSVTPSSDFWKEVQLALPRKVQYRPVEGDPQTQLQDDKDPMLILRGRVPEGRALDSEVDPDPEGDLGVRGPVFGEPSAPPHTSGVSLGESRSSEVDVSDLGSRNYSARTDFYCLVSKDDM
Test: co-IP; HeLa cells co-transfected with MyD88-HA and SIGIRR-FLAG, uninfected or infected with C. trachomatis LGV/L2 (MOI 1, 24 h); lysates on ANTI-FLAG M2 resin overnight at 2-8°C; immunoblot with anti-HA

- binding: binds
Substance: MyD88-HA (from UniProt Q99836 1-296)
